Two sequences from publication PMC4374696, “Protease Activity of PprI Facilitates DNA Damage Response: Mn(2+)-Dependence and Substrate Sequence-Specificity of the Proteolytic Reaction” can be followed below.

The data set addresses T1, DdrO (Deinococcus radiodurans R1 (ATCC 13939)) (UniProt Q9RRB8).
T1 sequence (looked up, limits assumed): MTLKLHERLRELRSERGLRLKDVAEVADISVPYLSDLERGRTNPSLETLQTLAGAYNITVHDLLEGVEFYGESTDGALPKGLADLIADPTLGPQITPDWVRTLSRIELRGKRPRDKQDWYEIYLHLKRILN
Nature of the data set: EMSA. Particulars: 10 uM DdrO with PprI protease 0.06-8 uM, complex gradually weakened; 150 mM NaCl, 20 mM Tris-HCl pH 8.0, 5 mM MgCl2, 1.6 uM DNA, 0-16 uM protein, 30 C; 12% TB-PAGE; recombinant protein; protein details: 6xHis-MBP tag removed by TEV; probe letters rebuilt from the primers and the genome. In general terms: A gel shift assay detects complexes by their altered migration in electrophoresis.

The exact form of at least one protein or probe is not confirmed. A weaker result is weaker than the reference pair of the same experiment. Where a protein sequence is shown, tags need not be part of it.

In the case of “AGAAACACCAGCATGATCGCAAGGTAGGCTGCTCCGCGCACTGGGGCGTCCGCCGAAAGGTGCAGCGCGCCTCACCTTCCCTTGACCCATCCCATTCAGGGCCGCACCCTGTAGACACTGGTTACGTCCTCCCATATACTCCGGTGAGGTTGTTATGCTGCTAGCAGAAATCATCAGTGTGGGCACG (double strand) [PrecA (recA promoter, RDRM)]”, the binding result was “binds more weakly”.
“TACTGCGGTCTGACGATGACCTCGTCCTTATCTGCGGGAGCCTCTATCTGCTCGGCGAACTGCGTCCTTTGCTGCTGGGCGAGCAGTCGGAAGGCCACGAACGCTGGCAATAGCCACAGCAGCGGCCAATTTCTGGTTTCGAAACAGGAATAAGGCAAGTTGACTGCCCTCATTCTGTATTGACCGTAGCAAGGAGCGGTGTTACACT (double strand) [PddrO]”: the binding result is reported as “binds more weakly”.
